PubChem BioAssay AID743121 | NCATS | 2013
In all, the deposit lists about 26,000 reagents; below is a random part of them. Over the whole deposit, 167 (0.63%) were called active. 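Calls are per gene from RSA p-values that are not deposited; an individual active-marked siRNA can sensitise only weakly.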 The numbers tell different reagents against one gene apart.

- Purpose: 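Genes whose silencing strengthens cell killing by camptothecin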 (primary screen)
- Cell system: MDA-MB-231 cells, a human breast cancer line
- Reagents: single siRNA against human genes, 20 nM siRNA (0.8 pmol per well)
- Timing: 120 h (drug added 48 h after transfection, read 72 h later)
- Challenge: camptothecin 20 nM (about EC30) for 72 h; vehicle 0.1% DMSO in parallel plates
- Measured: 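Cell viability by ATP luminescence (CellTiter-Glo) as % of non-targeting siRNA wells, and the log2 ratio of viability without drug over viability with camptothecin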
- Scale: log2 vehicle/camptothecin viability: higher = stronger sensitisation to camptothecin; viability with camptothecin and viability without drug: higher = more viable cells
- Active means: 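Active genes have an RSA gene-level p-value below 0.001, computed from the ratios of their separate siRNAs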

target	reagent	log2 vehicle/camptothecin viability	viability with camptothecin (% of control)	viability without drug (% of control)	activity call
PLCH1 (phospholipase C eta 1)	1	-0.263	63.9	53.2	inactive
PLCH1 (phospholipase C eta 1)	2	-0.227	139	119	inactive
PLCH1 (phospholipase C eta 1)	3	0.359	85.8	110	inactive
PLCH1 (phospholipase C eta 1)	4	-0.195	101	88.1	inactive
MPND (MPN domain containing)	1	-0.329	72.7	57.8	inactive
MPND (MPN domain containing)	2	0.156	56.3	62.7	inactive
MPND (MPN domain containing)	3	-0.00431	49	48.9	inactive
UBQLN4 (ubiquilin 4)	1	-0.431	57	42.3	inactive
UBQLN4 (ubiquilin 4)	2	0.92	29.4	55.7	inactive
UBQLN4 (ubiquilin 4)	3	-0.622	94.4	61.3	inactive
UBQLN4 (ubiquilin 4)	4	-0.182	88	77.6	inactive
CLCA2 (chloride channel accessory 2)	1	0.388	24.1	31.5	inactive
CLCA2 (chloride channel accessory 2)	2	0.349	25.7	32.7	inactive
CLCA2 (chloride channel accessory 2)	3	0.132	93.4	102	inactive
CLCA2 (chloride channel accessory 2)	4	-0.131	59.8	54.6	inactive
TYROBP (transmembrane immune signaling adaptor TYROBP)	1	-0.342	119	93.6	inactive
TYROBP (transmembrane immune signaling adaptor TYROBP)	2	0.0306	99.6	102	inactive
TYROBP (transmembrane immune signaling adaptor TYROBP)	3	-0.101	67.4	62.8	inactive
TYROBP (transmembrane immune signaling adaptor TYROBP)	4	-0.184	98.5	86.7	inactive
DUSP19 (dual specificity phosphatase 19)	1	-0.458	49.3	35.9	inactive
DUSP19 (dual specificity phosphatase 19)	2	-0.322	77	61.6	inactive
DUSP19 (dual specificity phosphatase 19)	3	-0.245	51.4	43.3	inactive
DUSP19 (dual specificity phosphatase 19)	4	-0.207	68	58.9	inactive
CNBP (CCHC-type zinc finger nucleic acid binding protein)	1	-0.522	58	40.4	inactive
CNBP (CCHC-type zinc finger nucleic acid binding protein)	2	-0.362	83.2	64.7	inactive
CNBP (CCHC-type zinc finger nucleic acid binding protein)	3	-0.0417	101	98	inactive
KIF20A (kinesin family member 20A)	1	0.364	20.4	26.2	inactive
KIF20A (kinesin family member 20A)	2	-0.0888	83.2	78.2	inactive
KIF20A (kinesin family member 20A)	3	0.0876	46.1	49	inactive
KIF20A (kinesin family member 20A)	4	-0.126	95.6	87.6	inactive
VAMP2 (vesicle associated membrane protein 2)	1	0.0653	74.2	77.7	inactive
VAMP2 (vesicle associated membrane protein 2)	2	-0.221	96.3	82.6	inactive
VAMP2 (vesicle associated membrane protein 2)	3	-0.448	90.6	66.4	inactive
CYP2A7 (cytochrome P450 family 2 subfamily A member 7)	1	-0.641	93.9	60.2	inactive
CYP2A7 (cytochrome P450 family 2 subfamily A member 7)	2	-0.131	95.4	87.1	inactive
CYP2A7 (cytochrome P450 family 2 subfamily A member 7)	3	-0.327	90.3	72	inactive
CYP2A7 (cytochrome P450 family 2 subfamily A member 7)	4	0.0826	87.4	92.5	inactive
ASB6 (ankyrin repeat and SOCS box containing 6)	1	0.558	44.7	65.9	inactive
ASB6 (ankyrin repeat and SOCS box containing 6)	2	0.0313	82.3	84.1	inactive
ASB6 (ankyrin repeat and SOCS box containing 6)	3	0.0899	90.7	96.5	inactive
ASB6 (ankyrin repeat and SOCS box containing 6)	4	0.459	55.3	76.1	inactive
CHRNA7 (cholinergic receptor nicotinic alpha 7 subunit)	1	-0.364	70.8	55	inactive
CHRNA7 (cholinergic receptor nicotinic alpha 7 subunit)	2	-0.118	47.7	43.9	inactive
CHRNA7 (cholinergic receptor nicotinic alpha 7 subunit)	3	-0.0778	57.1	54.1	inactive
CHRNA7 (cholinergic receptor nicotinic alpha 7 subunit)	4	-0.344	101	80	inactive
FST (follistatin)	1	-0.4	76.1	57.6	inactive
FST (follistatin)	2	0.11	90	97.2	inactive
FST (follistatin)	3	0.0712	60.9	64	inactive
FST (follistatin)	4	-0.266	54.6	45.4	inactive
COL5A2 (collagen type V alpha 2 chain)	1	0.315	49.3	61.3	inactive
COL5A2 (collagen type V alpha 2 chain)	2	-0.0023	86.5	86.3	inactive
COL5A2 (collagen type V alpha 2 chain)	3	-0.041	87.9	85.4	inactive
MAD1L1 (mitotic arrest deficient 1 like 1)	1	0.0375	88.8	91.1	inactive
MAD1L1 (mitotic arrest deficient 1 like 1)	2	-0.217	108	92.6	inactive
MAD1L1 (mitotic arrest deficient 1 like 1)	3	-0.308	81.9	66.2	inactive
MAD1L1 (mitotic arrest deficient 1 like 1)	4	-0.155	70.5	63.3	inactive
IL24 (interleukin 24)	1	0.019	47.1	47.8	inactive
IL24 (interleukin 24)	2	0.637	53.3	82.9	inactive
IL24 (interleukin 24)	3	-0.207	120	104	inactive
IL24 (interleukin 24)	4	-0.00552	106	106	inactive
NEK7 (NIMA related kinase 7)	1	0.0842	31.5	33.4	inactive
NEK7 (NIMA related kinase 7)	2	0.567	73.6	109	inactive
NEK7 (NIMA related kinase 7)	3	-0.116	106	97.6	inactive
CCR10 (C-C motif chemokine receptor 10)	1	-0.369	73.7	57	inactive
CCR10 (C-C motif chemokine receptor 10)	2	-0.407	28	21.1	inactive
CCR10 (C-C motif chemokine receptor 10)	3	0.205	82.7	95.2	inactive
CCR10 (C-C motif chemokine receptor 10)	4	-0.502	83.8	59.2	inactive
MAX (MYC associated transcriptional regulator X)	1	-0.245	108	91.5	inactive
MAX (MYC associated transcriptional regulator X)	2	-0.714	73.3	44.7	inactive
MAX (MYC associated transcriptional regulator X)	3	-0.063	47.2	45.2	inactive
MAX (MYC associated transcriptional regulator X)	4	-0.488	85.5	61	inactive
MAX (MYC associated transcriptional regulator X)	5	-0.434	100	74.4	inactive
MAX (MYC associated transcriptional regulator X)	6	-0.408	98.5	74.3	inactive
MAX (MYC associated transcriptional regulator X)	7	-0.557	82.4	56	inactive
MAX (MYC associated transcriptional regulator X)	8	0.156	101	112	inactive
